Experimental data reported in publication PMC9489540.
These are yes or no findings as the source states them, for the method shown. In cells and extracts the contact can be indirect. Some binding calls cover weakened binding; strength is not graded here. Sequences can lack the tags named with a protein.

Biological target: T1, His-TRAF2 and Flag-TRAF2 (two differently tagged copies of TRAF2), Q12933
T1 chain: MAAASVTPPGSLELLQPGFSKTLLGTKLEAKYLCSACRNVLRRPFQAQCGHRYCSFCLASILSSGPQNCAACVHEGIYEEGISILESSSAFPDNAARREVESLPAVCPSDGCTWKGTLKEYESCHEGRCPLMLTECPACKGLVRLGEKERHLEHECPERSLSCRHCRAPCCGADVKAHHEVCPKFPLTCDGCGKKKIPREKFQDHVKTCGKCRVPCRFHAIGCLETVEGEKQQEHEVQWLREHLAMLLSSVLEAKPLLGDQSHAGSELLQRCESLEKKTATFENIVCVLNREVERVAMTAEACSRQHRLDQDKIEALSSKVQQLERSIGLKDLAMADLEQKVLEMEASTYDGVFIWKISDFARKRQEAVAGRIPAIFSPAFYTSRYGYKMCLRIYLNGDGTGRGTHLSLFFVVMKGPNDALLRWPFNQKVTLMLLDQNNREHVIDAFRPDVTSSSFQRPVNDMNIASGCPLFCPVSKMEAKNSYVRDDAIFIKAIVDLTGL
Experiment: co-IP; His-TRAF2 with Flag-TRAF2, cells with or without circ-0110634 up-regulation; cell type and bait not stated; western blot
Conditions: remark: other sources report otherwise

B1: His-TRAF2 and Flag-TRAF2 (two differently tagged copies of TRAF2), Q12933 1-501 (protein)
chain: T1 chain
With B1 the binding was “binds”.
